The values that follow come from PMC6100082, “Pyridine-Ureas as Potential Anticancer Agents: Synthesis and In Vitro Biological Evaluation” (Molecules : A Journal of Synthetic Chemistry and Natural …, 2018).

The data set concerns breast cancer MCF-7 cell line. The data set is described as follows: In vitro anti-proliferative activity, MTT assay. In kind it is cell-based, human. The note with it: MCF-7, 48 h treatment, ratio of IC50. The protocol:
The in vitro anti-proliferative activity of the newly prepared pyridine-ureas 8a–n was examined against breast cancer MCF-7 cell line. The assay was carried out, as triplicates, utilizing the 3-(4,5-dimethylthiazol-2-yl)-2,5-diphenyltetrazolium bromide (MTT) colorimetric assay as described by T. Mosmann. Doxorubicin and Sorafenib were included in this assay as a reference drug.
MCF-7 (human breast cancer cell line) and WI-38 (human lung fibroblast cell line), were obtained from American Type Culture Collection (Manassas, VA, USA). The cells were propagated in DMEM and supplemented with 10% heat-inactivated FBS (Hyclone), 10 μg/mL of insulin (Manufacturer, Sigma, St. Louis, MO, USA), and 1% penicillin-streptomycin. MTT assay was utilized to examine the in vitro anti-proliferative activity of the newly prepared ureas following the reported procedures. […] The data presented are the mean of at least three separate experiments.

For the compound `COc1ccc(-c2ccc(NC(=O)Nc3ccc(Cl)c(C(F)(F)F)c3)c(C)n2)cc1` [Compound 8e, 1-(4-Chloro-3-(trifluoromethyl)phenyl)-3-(6-(4-methoxyphenyl)-2-methylpyridin-3-yl)urea], the “times more active than Doxorubicin” value stood at 8.7 times and the “times more active than Sorafenib” value was found to be 20 times.
